Data as given in PubChem BioAssay AID1259405 (NCATS, 2018)

Screen: 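Knock-downs that lift recombinant protein yield in hamster ovary cells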 (primary screen)
Cells: Chinese hamster CHO-K1 ovary cells with stable secreted eGFP expression
Knock-down reagent: single siRNA against mouse genes, 0.8 pmol siRNA per well (2 µl of 400 nM stock)
Duration: 3 days
Measurement: 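Percent of the per-plate non-targeting control median for intracellular GFP per well by laser scanning cytometry and for cell viability by ATP luminescence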
Reading the numbers: GFP, % of control: higher = more GFP per well, higher productivity; viability (ATP), % of control: higher = more viable cells (more ATP)
Hit rule: 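a knock-down is called active if GFP reaches 120% or more of non-targeting control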
The whole screen tested about 50,000 reagents; below is a part drawn at random. About 4,000 of them (8%) were called active. 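Mouse siRNA library applied to hamster cells; one well for each siRNA.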

The opening 2 records, to show the layout:
{"gene":"S100a13 (S100 calcium binding protein A13)","PubChem SID":"SID363553693","GFP, % of control":70.1,"viability (ATP), % of control":66.3,"activity call":"inactive"}
{"gene":"S100a13 (S100 calcium binding protein A13)","PubChem SID":"SID363561650","GFP, % of control":21.2,"viability (ATP), % of control":35.1,"activity call":"inactive"}

Results, from the first entry:
{"gene":"S100a13 (S100 calcium binding protein A13)","PubChem SID":"SID363553693","GFP, % of control":70.1,"viability (ATP), % of control":66.3,"activity call":"inactive"}
{"gene":"S100a13 (S100 calcium binding protein A13)","PubChem SID":"SID363561650","GFP, % of control":21.2,"viability (ATP), % of control":35.1,"activity call":"inactive"}
{"gene":"S100a13 (S100 calcium binding protein A13)","PubChem SID":"SID363565388","GFP, % of control":84.4,"viability (ATP), % of control":84.7,"activity call":"inactive"}
{"gene":"Ampd3 (adenosine monophosphate deaminase 3)","PubChem SID":"SID363569838","GFP, % of control":103,"viability (ATP), % of control":75.5,"activity call":"inactive"}
{"gene":"Ampd3 (adenosine monophosphate deaminase 3)","PubChem SID":"SID363576878","GFP, % of control":61.3,"viability (ATP), % of control":77.7,"activity call":"inactive"}
{"gene":"Ampd3 (adenosine monophosphate deaminase 3)","PubChem SID":"SID363578286","GFP, % of control":86.4,"viability (ATP), % of control":45.3,"activity call":"inactive"}
{"gene":"Dnm1l (dynamin 1-like)","PubChem SID":"SID363541466","GFP, % of control":66.3,"viability (ATP), % of control":60,"activity call":"inactive"}
{"gene":"Dnm1l (dynamin 1-like)","PubChem SID":"SID363556093","GFP, % of control":32.5,"viability (ATP), % of control":43.1,"activity call":"inactive"}
{"gene":"Dnm1l (dynamin 1-like)","PubChem SID":"SID363566382","GFP, % of control":80.1,"viability (ATP), % of control":73.6,"activity call":"inactive"}
{"gene":"Abcc5 (ATP-binding cassette, sub-family C member 5)","PubChem SID":"SID363547634","GFP, % of control":85.2,"viability (ATP), % of control":55.2,"activity call":"inactive"}
{"gene":"Abcc5 (ATP-binding cassette, sub-family C member 5)","PubChem SID":"SID363558403","GFP, % of control":95.8,"viability (ATP), % of control":59.9,"activity call":"inactive"}
{"gene":"Abcc5 (ATP-binding cassette, sub-family C member 5)","PubChem SID":"SID363560161","GFP, % of control":25.9,"viability (ATP), % of control":69.9,"activity call":"inactive"}
{"gene":"Rps23 (ribosomal protein S23)","PubChem SID":"SID363554078","GFP, % of control":58.1,"viability (ATP), % of control":27,"activity call":"inactive"}
{"gene":"Rps23 (ribosomal protein S23)","PubChem SID":"SID363562035","GFP, % of control":73.6,"viability (ATP), % of control":64.4,"activity call":"inactive"}
{"gene":"Rps23 (ribosomal protein S23)","PubChem SID":"SID363565773","GFP, % of control":114,"viability (ATP), % of control":87,"activity call":"inactive"}
{"gene":"Tas2r135 (taste receptor, type 2, member 135)","PubChem SID":"SID363556269","GFP, % of control":53.7,"viability (ATP), % of control":42.3,"activity call":"inactive"}
{"gene":"Tas2r135 (taste receptor, type 2, member 135)","PubChem SID":"SID363586719","GFP, % of control":47.3,"viability (ATP), % of control":61.7,"activity call":"inactive"}
{"gene":"Tas2r135 (taste receptor, type 2, member 135)","PubChem SID":"SID363588827","GFP, % of control":71.8,"viability (ATP), % of control":70.8,"activity call":"inactive"}
{"gene":"Pgk1 (phosphoglycerate kinase 1)","PubChem SID":"SID363547294","GFP, % of control":112,"viability (ATP), % of control":86.4,"activity call":"inactive"}
{"gene":"Pgk1 (phosphoglycerate kinase 1)","PubChem SID":"SID363558063","GFP, % of control":75.4,"viability (ATP), % of control":86.3,"activity call":"inactive"}
{"gene":"Pgk1 (phosphoglycerate kinase 1)","PubChem SID":"SID363559821","GFP, % of control":78.9,"viability (ATP), % of control":75.6,"activity call":"inactive"}
{"gene":"Specc1l","PubChem SID":"SID363542419","GFP, % of control":94.3,"viability (ATP), % of control":83.6,"activity call":"inactive"}
{"gene":"Specc1l","PubChem SID":"SID363551910","GFP, % of control":117,"viability (ATP), % of control":53.1,"activity call":"inactive"}
{"gene":"Specc1l","PubChem SID":"SID363559515","GFP, % of control":63.9,"viability (ATP), % of control":75.4,"activity call":"inactive"}
{"gene":"Haus1 (HAUS augmin-like complex, subunit 1)","PubChem SID":"SID363550025","GFP, % of control":60.8,"viability (ATP), % of control":50.3,"activity call":"inactive"}
{"gene":"Haus1 (HAUS augmin-like complex, subunit 1)","PubChem SID":"SID363564534","GFP, % of control":83.5,"viability (ATP), % of control":92.3,"activity call":"inactive"}
{"gene":"Haus1 (HAUS augmin-like complex, subunit 1)","PubChem SID":"SID363588079","GFP, % of control":100,"viability (ATP), % of control":114,"activity call":"inactive"}
